Experimental data taken from paper PMC9656702, “Unveiling a New Selenocyanate as a Multitarget Candidate with Anticancer, Antileishmanial and Antibacterial Potential” (Molecules, 2022).

Key:
MDA-MB-231 = experiment: Antiproliferative MTT assay, MDA-MB-231 breast cancer cells; type: cell-based, human; settings: SI calculated as IC50 (184B5)/ IC50 (MDA-MB-231)
Description: (§1) The antiproliferative activities of the cinnamyl and benzodioxyl derivatives were assessed against six human cell lines of three different types of cancer (colon, lung, and breast) using the 3-(4,5-dimethylthiazol-2-yl)-2,5-diphenyltetrazolium bromide (MTT) assay at seven concentrations for 48 h. The results are expressed as the IC50 values and are outlined in Table 1.
(§2) The cell lines were obtained from the American Type Culture Collection (ATCC). All the cancer cell lines (HT-29, HCT-116, H1299, HTB-54, MDA-MB-231 and MCF-7) and the nontumorigenic cells (184B5) were maintained in RPMI 1640 medium (Gibco), supplemented with 10% fetal bovine serum (FBS; Gibco) and 1% antibiotics (10.00 units/mL penicillin and 10.00 mg/mL streptomycin; Gibco). Cells were preserved in tissue culture flasks at 37 °C and 5% CO2. Culture medium was replaced every three days.
(§3) The cytotoxic effect of each compound was initially tested at seven different concentrations ranging between 0.5 and 100 µM in the cell lines mentioned above. The cells were seeded (1 × 10^4 cells per well) in 96-well plates and incubated at 37 °C and 5% CO2 for 24 h. After attachment, cells were treated with either dimethyl sulfoxide (DMSO) or increasing concentrations of the corresponding selenocompound for 48 h. The effect of the compounds on cell viability was determined by the MTT assay. In brief, 20 µL of MTT (5 mg/mL) was added to each well 2.5 h prior to experiment termination. At the end of the incubation, the medium was removed, and the formazan crystals were dissolved in 50 µL of DMSO. Absorbance was measured at 550 nm on a microplate reader. IC50 values were calculated using OriginPro 8.5.1. software by nonlinear curve fitting. Selectivity indexes were calculated as the ratio of the IC50 values determined for the nonmalignant and the tumoral cells in the breast cell lines (IC50 (184B5)/IC50 (MDA-MB-231) and IC50 (184B5)/IC50 (MCF-7)). Data were obtained from at least three independent experiments performed in triplicates.

MCF-7 = experiment: Antiproliferative MTT assay, MCF-7 breast cancer cells; type: cell-based, human; settings: SI calculated as IC50 (184B5)/ IC50 (MCF-7)
Description: as §1, §2, §3

Row | SMILES | SI a (MDA-MB-231) | SI b (MCF-7)
1 | N#C[Se]C/C=C/c1ccccc1 [Compound 1a, (E)-(3-selenocyanatoprop-1-en-1-yl)benzene] | 0.8 | 1.0
2 | O=C(CC[Se]CC=Cc1ccccc1)[c-]1cccc1.[Fe+2].c1cc[cH-]c1 [Compound 1c, 3-(Cinnamylselanyl)-1-ferrocenylpropan-1-one] | 0.8 | 1.3
3 | N#C[Se]Cc1ccc2c(c1)OCO2 [Compound 2a, 5-(Selenocyanatomethyl)benzo[d][1,3]dioxole] | 1.1 | 0.8
4 | O=C(CC[Se]Cc1ccc2c(c1)OCO2)[c-]1cccc1.[Fe+2].c1cc[cH-]c1 [Compound 2c, 3-((Benzo[d][1,3]dioxol-5-ylmethyl)selanyl)-1-ferrocenylpropan-1-one] | 1.6 | 3.4
